Measurements as given in the supplement of paper PMC10849652.
The other results are listed elsewhere or left out.

Protein sequences, listed by entry. Tags and fused reporters are not part of them. Lines headed by an entry give the natural chain unless they say otherwise; changes in a name come on top.
UniProt O43542: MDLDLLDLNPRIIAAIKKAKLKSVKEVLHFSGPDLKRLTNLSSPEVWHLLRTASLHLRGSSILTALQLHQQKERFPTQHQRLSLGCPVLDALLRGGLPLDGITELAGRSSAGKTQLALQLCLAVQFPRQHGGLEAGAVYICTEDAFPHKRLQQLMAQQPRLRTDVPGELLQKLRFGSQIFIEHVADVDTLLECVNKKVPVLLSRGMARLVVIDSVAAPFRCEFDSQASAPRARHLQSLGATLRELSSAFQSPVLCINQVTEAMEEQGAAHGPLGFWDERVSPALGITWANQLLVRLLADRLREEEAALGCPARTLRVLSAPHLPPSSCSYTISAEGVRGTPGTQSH
UniProt Q9Y5A9: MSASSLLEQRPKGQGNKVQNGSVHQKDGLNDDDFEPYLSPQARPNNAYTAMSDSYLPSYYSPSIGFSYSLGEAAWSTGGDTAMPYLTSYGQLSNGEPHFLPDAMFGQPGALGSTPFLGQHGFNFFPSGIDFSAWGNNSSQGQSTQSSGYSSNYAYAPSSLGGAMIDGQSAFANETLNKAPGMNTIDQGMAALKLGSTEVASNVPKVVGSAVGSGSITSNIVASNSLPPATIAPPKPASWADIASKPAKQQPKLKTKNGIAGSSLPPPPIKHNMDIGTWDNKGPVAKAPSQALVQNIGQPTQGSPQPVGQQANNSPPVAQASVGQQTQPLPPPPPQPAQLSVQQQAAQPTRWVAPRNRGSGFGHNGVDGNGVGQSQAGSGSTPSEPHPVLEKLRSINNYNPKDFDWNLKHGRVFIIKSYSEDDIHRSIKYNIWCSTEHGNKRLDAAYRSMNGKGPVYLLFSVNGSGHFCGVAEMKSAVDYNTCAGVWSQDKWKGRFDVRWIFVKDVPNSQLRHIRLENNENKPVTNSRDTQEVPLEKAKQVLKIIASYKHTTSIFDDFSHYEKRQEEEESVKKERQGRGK
UniProt Q7Z3T8: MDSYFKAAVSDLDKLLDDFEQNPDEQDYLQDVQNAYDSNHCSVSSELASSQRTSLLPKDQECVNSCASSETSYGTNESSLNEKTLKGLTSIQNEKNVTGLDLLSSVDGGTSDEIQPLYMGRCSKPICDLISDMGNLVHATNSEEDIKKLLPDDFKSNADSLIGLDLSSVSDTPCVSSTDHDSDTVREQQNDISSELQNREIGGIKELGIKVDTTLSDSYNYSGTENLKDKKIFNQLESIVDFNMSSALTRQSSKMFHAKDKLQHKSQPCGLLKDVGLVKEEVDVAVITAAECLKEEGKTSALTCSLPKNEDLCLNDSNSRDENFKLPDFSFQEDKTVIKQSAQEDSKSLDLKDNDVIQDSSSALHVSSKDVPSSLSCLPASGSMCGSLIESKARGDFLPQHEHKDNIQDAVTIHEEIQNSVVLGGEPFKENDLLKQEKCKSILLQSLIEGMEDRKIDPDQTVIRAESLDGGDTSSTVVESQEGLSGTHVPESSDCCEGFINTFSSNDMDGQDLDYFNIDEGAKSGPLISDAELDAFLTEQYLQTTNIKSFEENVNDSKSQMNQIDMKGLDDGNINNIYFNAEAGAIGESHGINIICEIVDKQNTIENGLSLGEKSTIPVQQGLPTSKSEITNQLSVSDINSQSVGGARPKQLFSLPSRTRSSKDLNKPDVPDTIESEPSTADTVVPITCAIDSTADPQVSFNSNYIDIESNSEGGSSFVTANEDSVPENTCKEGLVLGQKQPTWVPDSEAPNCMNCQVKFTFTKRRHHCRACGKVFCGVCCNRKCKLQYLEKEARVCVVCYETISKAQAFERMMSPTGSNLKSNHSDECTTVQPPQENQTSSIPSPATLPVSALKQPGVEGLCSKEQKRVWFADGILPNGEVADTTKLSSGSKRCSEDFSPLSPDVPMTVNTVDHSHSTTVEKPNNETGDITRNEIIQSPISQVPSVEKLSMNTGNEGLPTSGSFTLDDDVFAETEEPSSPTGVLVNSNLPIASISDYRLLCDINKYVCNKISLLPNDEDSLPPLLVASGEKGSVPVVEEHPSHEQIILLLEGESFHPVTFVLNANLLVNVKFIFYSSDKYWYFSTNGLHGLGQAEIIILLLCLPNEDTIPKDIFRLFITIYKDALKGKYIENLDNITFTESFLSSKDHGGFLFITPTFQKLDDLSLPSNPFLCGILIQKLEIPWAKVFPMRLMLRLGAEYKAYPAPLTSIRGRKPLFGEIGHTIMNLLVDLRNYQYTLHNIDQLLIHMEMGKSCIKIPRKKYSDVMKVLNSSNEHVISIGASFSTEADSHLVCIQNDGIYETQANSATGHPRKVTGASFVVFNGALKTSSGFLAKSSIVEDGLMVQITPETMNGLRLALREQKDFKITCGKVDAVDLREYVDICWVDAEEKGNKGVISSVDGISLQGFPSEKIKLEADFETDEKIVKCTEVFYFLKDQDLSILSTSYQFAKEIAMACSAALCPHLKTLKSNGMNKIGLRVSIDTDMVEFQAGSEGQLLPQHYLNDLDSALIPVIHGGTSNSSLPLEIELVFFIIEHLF
UniProt Q9NQH7: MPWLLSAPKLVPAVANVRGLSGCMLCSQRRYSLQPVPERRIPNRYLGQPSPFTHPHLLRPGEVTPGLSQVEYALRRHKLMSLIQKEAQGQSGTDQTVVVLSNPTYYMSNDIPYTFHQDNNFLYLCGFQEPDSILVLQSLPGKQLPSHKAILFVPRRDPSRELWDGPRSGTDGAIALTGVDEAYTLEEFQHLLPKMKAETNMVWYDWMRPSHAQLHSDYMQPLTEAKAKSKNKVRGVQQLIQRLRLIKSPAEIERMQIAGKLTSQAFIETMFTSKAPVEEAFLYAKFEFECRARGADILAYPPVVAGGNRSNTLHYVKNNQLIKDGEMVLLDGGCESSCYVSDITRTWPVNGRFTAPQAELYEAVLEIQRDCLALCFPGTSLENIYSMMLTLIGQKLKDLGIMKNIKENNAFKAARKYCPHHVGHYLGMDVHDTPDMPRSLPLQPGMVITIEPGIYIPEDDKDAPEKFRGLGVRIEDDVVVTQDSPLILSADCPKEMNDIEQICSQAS
UniProt Q9HAV4: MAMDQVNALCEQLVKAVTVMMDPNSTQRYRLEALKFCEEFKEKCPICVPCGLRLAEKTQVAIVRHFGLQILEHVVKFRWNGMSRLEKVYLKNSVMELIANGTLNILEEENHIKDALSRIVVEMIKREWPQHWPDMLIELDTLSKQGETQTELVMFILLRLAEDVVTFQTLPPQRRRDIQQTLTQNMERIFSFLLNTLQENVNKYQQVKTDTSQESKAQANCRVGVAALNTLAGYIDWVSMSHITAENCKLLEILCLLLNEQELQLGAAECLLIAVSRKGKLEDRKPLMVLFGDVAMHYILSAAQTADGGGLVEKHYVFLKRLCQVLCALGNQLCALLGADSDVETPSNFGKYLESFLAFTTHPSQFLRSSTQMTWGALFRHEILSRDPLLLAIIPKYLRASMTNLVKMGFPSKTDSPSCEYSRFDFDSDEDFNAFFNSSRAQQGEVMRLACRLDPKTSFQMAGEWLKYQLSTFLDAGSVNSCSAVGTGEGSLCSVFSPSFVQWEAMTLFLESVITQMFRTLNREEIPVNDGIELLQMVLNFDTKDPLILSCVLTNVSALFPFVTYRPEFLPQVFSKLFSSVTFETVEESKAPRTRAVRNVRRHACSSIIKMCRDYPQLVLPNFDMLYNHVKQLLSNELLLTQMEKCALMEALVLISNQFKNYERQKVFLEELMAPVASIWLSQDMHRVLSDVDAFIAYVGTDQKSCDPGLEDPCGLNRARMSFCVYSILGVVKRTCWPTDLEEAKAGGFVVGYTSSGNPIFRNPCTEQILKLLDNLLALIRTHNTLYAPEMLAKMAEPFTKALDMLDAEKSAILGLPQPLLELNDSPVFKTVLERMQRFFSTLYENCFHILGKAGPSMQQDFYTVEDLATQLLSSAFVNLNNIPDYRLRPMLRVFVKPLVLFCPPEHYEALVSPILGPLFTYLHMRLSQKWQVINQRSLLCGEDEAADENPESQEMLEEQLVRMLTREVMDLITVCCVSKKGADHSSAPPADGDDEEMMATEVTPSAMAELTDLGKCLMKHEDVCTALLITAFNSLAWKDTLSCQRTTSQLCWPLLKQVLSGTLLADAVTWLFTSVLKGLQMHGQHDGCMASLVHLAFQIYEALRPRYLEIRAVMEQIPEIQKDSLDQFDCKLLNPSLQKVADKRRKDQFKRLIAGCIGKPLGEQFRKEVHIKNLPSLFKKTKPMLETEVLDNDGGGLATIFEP
UniProt Q96EC8: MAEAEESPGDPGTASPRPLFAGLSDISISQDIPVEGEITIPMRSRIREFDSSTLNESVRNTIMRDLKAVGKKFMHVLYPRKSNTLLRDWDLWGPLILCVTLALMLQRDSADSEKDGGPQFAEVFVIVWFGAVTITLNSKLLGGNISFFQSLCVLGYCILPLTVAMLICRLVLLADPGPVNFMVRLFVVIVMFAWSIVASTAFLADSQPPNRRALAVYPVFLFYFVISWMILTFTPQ
UniProt Q7Z739: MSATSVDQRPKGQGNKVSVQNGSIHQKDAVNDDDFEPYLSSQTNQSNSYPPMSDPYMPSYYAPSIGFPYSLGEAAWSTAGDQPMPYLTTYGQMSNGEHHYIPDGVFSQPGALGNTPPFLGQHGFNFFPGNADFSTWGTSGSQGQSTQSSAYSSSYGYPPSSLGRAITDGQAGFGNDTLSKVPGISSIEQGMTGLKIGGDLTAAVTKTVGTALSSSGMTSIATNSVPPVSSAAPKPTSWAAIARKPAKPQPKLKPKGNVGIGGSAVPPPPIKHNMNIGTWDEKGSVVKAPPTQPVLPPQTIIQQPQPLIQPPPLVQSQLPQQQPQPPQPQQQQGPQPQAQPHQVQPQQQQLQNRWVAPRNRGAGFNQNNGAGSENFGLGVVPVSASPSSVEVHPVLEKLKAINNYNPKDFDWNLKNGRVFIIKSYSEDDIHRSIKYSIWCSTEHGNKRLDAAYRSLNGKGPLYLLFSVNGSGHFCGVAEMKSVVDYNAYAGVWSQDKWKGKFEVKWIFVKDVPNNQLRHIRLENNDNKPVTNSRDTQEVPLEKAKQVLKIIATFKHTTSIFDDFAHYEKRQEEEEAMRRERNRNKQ
UniProt Q9NYG2: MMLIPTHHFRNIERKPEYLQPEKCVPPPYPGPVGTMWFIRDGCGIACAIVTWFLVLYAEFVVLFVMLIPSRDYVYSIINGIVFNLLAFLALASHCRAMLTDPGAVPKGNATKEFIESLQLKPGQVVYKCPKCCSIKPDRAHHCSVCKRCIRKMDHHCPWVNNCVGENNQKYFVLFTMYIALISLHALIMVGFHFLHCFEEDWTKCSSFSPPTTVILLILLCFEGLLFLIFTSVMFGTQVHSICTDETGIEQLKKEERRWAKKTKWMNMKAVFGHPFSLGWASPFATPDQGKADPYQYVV
UniProt Q7Z7L7: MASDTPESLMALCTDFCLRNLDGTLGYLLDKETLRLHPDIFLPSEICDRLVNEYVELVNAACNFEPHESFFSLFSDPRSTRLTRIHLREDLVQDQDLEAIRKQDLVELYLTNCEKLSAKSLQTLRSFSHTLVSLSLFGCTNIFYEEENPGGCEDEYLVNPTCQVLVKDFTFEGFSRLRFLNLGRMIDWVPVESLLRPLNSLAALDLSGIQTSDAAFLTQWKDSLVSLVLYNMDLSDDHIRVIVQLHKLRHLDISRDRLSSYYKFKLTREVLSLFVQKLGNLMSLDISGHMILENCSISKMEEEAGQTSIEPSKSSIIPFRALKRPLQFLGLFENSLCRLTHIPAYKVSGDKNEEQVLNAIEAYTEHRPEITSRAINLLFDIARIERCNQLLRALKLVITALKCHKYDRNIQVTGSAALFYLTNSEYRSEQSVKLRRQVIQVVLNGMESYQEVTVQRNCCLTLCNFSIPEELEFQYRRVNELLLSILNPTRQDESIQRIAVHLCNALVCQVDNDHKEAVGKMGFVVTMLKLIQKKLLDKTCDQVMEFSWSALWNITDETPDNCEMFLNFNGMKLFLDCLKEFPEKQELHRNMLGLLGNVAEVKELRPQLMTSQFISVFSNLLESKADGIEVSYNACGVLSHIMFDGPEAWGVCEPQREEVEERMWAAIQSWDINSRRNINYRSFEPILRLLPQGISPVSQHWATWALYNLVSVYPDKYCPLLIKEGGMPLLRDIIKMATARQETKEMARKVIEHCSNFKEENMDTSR
UniProt O43670: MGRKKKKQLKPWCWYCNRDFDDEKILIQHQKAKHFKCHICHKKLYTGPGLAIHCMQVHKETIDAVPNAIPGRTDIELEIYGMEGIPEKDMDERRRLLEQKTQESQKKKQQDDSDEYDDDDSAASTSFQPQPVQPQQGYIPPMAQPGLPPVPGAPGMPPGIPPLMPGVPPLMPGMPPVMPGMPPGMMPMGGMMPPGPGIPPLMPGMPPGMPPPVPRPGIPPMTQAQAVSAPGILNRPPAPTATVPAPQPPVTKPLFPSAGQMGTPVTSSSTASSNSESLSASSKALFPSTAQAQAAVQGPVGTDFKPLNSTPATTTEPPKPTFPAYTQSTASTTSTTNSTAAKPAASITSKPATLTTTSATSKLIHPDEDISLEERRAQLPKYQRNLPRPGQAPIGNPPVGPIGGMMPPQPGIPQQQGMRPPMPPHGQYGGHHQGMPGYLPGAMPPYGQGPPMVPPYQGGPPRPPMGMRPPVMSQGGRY

Experiments:
Assay in all cases: log2 fold change, soluble protein after heating vs DMSO (PISA); higher = thermal stabilisation; K562 cells, 10 uM, 30 min; active = over 0.2 and 3.5 SD of the protein, either way, in both replicates (recomputed)
[1] = compound: CC1=C(C=C(C=C1)NC(=O)C2=CC(=CC=C2)C(C)(C)C#N)NC3=CC4=C(C=C3)N=CN(C4=O)C
How it was run: (§1)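 Quantification of soluble protein used TMTpro 16plex LC-MS/MS, with channel sums equalised. Samples were the supernatant after 21,000xg for 90 min of pooled aliquots from K562 cells (2×10^6 cells/mL) treated with 10 μM compound for 30 min, heated for 3 min over 48°C-58°C, and extracted in PBS with 0.5% NP-40 at 4°C. Values, from duplicates, describe thermal stability against control samples on a log2 fold-change scale.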

[2] = compound: CC1=C(C=C(C=C1)NC(=O)C2=CC(=CC=C2)N(C)C)NC(=O)C3=CC=C(C=C3)O
How it was run: as §1

[3] = compound: CC1=CC=C(C=C1)SC2=C3C=C(SC3=CN=C2)C(=O)N
How it was run: as §1

[4] = compound: CC1=NC(=CC=C1)C2=C(N=C(N2)C(C)(C)C)C3=CC4=NC=CN=C4C=C3
How it was run: as §1

Nexturastat A = compound: CCCCN(Cc1ccc(C(=O)NO)cc1)C(=O)Nc1ccccc1 [Nexturastat A]
How it was run: as §1

vemurafenib = compound: CCCS(=O)(=O)Nc1ccc(F)c(C(=O)c2c[nH]c3ncc(-c4ccc(Cl)cc4)cc23)c1F [vemurafenib]
How it was run: as §1

[5] = compound: CCCS(=O)(=O)Nc1ccc(F)c(C(=O)c2c[nH]c3ncc(Cl)cc23)c1F
How it was run: as §1

[6] = compound: CCCc1cc(C)[nH]c(=O)c1CNC(=O)c1cc(-c2ccnc(N3CCN(C)CC3)c2)cc2c1cnn2C(C)C
How it was run: as §1

givinostat = compound: CCN(CC)Cc1ccc2cc(COC(=O)Nc3ccc(C(=O)NO)cc3)ccc2c1 [givinostat]
How it was run: as §1

barasertib = compound: CCN(CCCOc1ccc2c(Nc3cc(CC(=O)Nc4cccc(F)c4)[nH]n3)ncnc2c1)CCOP(=O)(O)O [barasertib]
How it was run: as §1

Measured: log2 fold change

YKT6 (UniProt O15498)
inactive: [1] -0.02 | [2] 0.006 | [3] -0.003 | [4] 0.015 | Nexturastat A -0.068 | vemurafenib -0.001 | [5] 0.001 | [6] -0.028 | givinostat -0.042 | barasertib -0.01

XRCC3 (UniProt O43542)
inactive: [1] -0.01 | [2] -0.032 | [3] -0.014 | [4] 0.074 | Nexturastat A -0.107 | vemurafenib 0.051 | [5] -0.094 | [6] -0.108 | givinostat -0.005 | barasertib -0.051

YAE1 (UniProt Q9NRH1)
inactive: [1] 0.056 | [2] 0.009 | [3] -0.012 | [4] 0.019 | Nexturastat A 0.564 | vemurafenib 0.019 | [5] -0.037 | [6] -0.083 | givinostat -0.017 | barasertib 0.097

ZMIZ2 (UniProt Q8NF64)
inactive: [1] 0.022 | [2] -0.068 | [3] -0.031 | [4] -0.066 | Nexturastat A -0.127 | vemurafenib -0.037 | [5] -0.02 | [6] -0.054 | givinostat 0.07 | barasertib 0.026

YTHDF2 (UniProt Q9Y5A9)
inactive: [1] -0.012 | [2] 0.008 | [3] -0.031 | [4] 0.003 | Nexturastat A 0.056 | vemurafenib 0.066 | [5] 0.018 | [6] -0.033 | givinostat 0.026 | barasertib -0.058

XXYLT1 (UniProt Q8NBI6)
inactive: [1] 0.065 | [2] 0.005 | [3] -0.009 | [4] 0.068 | Nexturastat A -0.063 | vemurafenib 0.003 | [5] 0.05 | [6] -0.035 | givinostat -0.146 | barasertib -0.022

YWHAB (UniProt P31946)
inactive: [1] 0.016 | [2] -0.008 | [3] -0.033 | [4] 0.021 | Nexturastat A -0.048 | vemurafenib 0.021 | [5] 0.031 | [6] -0.031 | givinostat -0.026 | barasertib 0.003

ZFYVE16 (UniProt Q7Z3T8)
inactive: [1] 0.001 | [2] 0.024 | [3] 0.017 | [4] -0.015 | Nexturastat A -0.034 | vemurafenib 0.036 | [5] -0.021 | [6] -0.001 | givinostat -0.007 | barasertib 0.033

YIPF3 (UniProt Q9GZM5)
inactive: [1] 0.046 | [2] 0.087 | [3] 0.013 | [4] -0.045 | Nexturastat A -0.019 | vemurafenib -0.034 | [5] 0.015 | [6] -0.043 | givinostat -0.06 | barasertib -0.006

ZCCHC9 (UniProt Q8N567)
inactive: [1] -0.227 | [2] 0.062 | [3] -0.109 | [4] -0.133 | Nexturastat A 0.311 | vemurafenib -0.11 | [5] -0.177 | [6] 0.057 | givinostat 0.038 | barasertib -0.094

YWHAZ (UniProt P63104)
inactive: [1] 0.025 | [2] 0.011 | [3] 0.123 | [4] 0.009 | Nexturastat A -0.051 | vemurafenib 0.037 | [6] 0.056 | givinostat -0.001 | barasertib -0.002
active: [5] 0.228

ZCCHC8 (UniProt Q6NZY4)
inactive: [1] -0.007 | [2] 0.007 | [3] 0.016 | [4] -0.001 | Nexturastat A -0.001 | vemurafenib -0.021 | [5] -0.015 | [6] -0.002 | givinostat -0.037 | barasertib -0.025

XPNPEP3 (UniProt Q9NQH7)
inactive: [1] -0.045 | [2] 0.024 | [3] 0.005 | [4] 0.017 | Nexturastat A -0.08 | vemurafenib 0.011 | [5] -0.012 | [6] 0.013 | givinostat -0.218 | barasertib -0.016

XPO5 (UniProt Q9HAV4)
inactive: [1] 0.031 | [2] -0.039 | [3] 0.054 | [4] 0.031 | Nexturastat A -0.053 | vemurafenib 0.013 | [5] 0.056 | [6] 0.014 | givinostat -0.029 | barasertib 0.029

YIPF6 (UniProt Q96EC8)
inactive: [1] -0.131 | [2] 0.024 | [3] -0.018 | [4] 0.047 | Nexturastat A -0.011 | vemurafenib -0.15 | [5] 0.004 | [6] -0.067 | givinostat -0.028 | barasertib -0.041

YTHDF3 (UniProt Q7Z739)
inactive: [1] 0.032 | [2] 0.017 | [3] -0.046 | [4] 0.015 | Nexturastat A 0.029 | vemurafenib 0.007 | [5] -0.004 | [6] -0.015 | givinostat -0.002 | barasertib -0.025

ZFYVE19 (UniProt Q96K21)
inactive: [1] -0.057 | [2] 0.053 | [3] -0.046 | [4] -0.013 | Nexturastat A -0.008 | vemurafenib -0.036 | [5] -0.015 | [6] -0.003 | givinostat 0.025 | barasertib -0.056

ZDHHC3 isoform 2 (UniProt Q9NYG2)
inactive: [1] 0.019 | [2] 0 | [3] 0.051 | [4] 0.035 | Nexturastat A 0.004 | vemurafenib 0.026 | [5] 0.009 | [6] -0.433 | givinostat -0.015 | barasertib 0.017

YIF1B (UniProt Q5BJH7)
inactive: [1] 0 | [2] 0.051 | [3] 0.05 | [4] 0.023 | Nexturastat A -0.114 | vemurafenib -0.069 | [5] 0.031 | [6] -0.114 | givinostat -0.021 | barasertib -0.005

YARS2 (UniProt Q9Y2Z4)
inactive: [1] 0.04 | [2] -0.083 | [3] 0.211 | [4] 0.01 | Nexturastat A 0.048 | vemurafenib 0.002 | [5] -0.079 | [6] 0.167 | givinostat 0.046 | barasertib -0.007

YBX3 (UniProt P16989)
inactive: [1] -0.026 | [2] 0.017 | [3] -0.105 | [4] -0.119 | Nexturastat A 0.348 | vemurafenib -0.034 | [5] -0.099 | [6] 0.089 | givinostat -0.053 | barasertib -0.166

ZFAND2B (UniProt Q8WV99)
inactive: [1] -0.053 | [2] 0.01 | [3] 0.038 | [4] -0.004 | Nexturastat A 0.049 | vemurafenib 0.022 | [5] 0.041 | [6] -0.038 | givinostat -0.012 | barasertib -0.076

ZER1 (UniProt Q7Z7L7)
inactive: [1] -0.041 | [2] -0.059 | [3] -0.085 | [4] -0.248 | Nexturastat A 0.012 | vemurafenib -0.033 | [5] -0.001 | [6] -0.125 | givinostat 0.117 | barasertib 0.034

XPO1 (UniProt O14980)
inactive: [1] 0.072 | [2] -0.063 | [3] 0.025 | [4] 0.081 | Nexturastat A -0.061 | vemurafenib 0.086 | [5] 0.101 | [6] -0.011 | givinostat 0.024 | barasertib 0.039

YY1 (UniProt P25490)
inactive: [1] 0.035 | [2] -0.012 | [3] 0.01 | [4] 0.039 | Nexturastat A 0.069 | vemurafenib 0.03 | [5] 0.037 | [6] -0.006 | givinostat 0.02 | barasertib -0.01

ZBTB21 (UniProt Q9ULJ3)
inactive: [1] -0.03 | [2] 0.101 | [3] 0.008 | [4] -0.03 | Nexturastat A 0.106 | vemurafenib -0.032 | [5] 0.091 | [6] -0.008 | givinostat -0.045 | barasertib -0.043

XPR1 (UniProt Q9UBH6)
inactive: [1] 0.034 | [2] -0.011 | [3] -0.009 | [4] 0.015 | Nexturastat A -0.048 | vemurafenib -0.03 | [5] -0.006 | [6] -0.013 | givinostat -0.027 | barasertib -0.023

ZMYM3 (UniProt Q14202)
inactive: [1] -0.092 | [2] 0.056 | [3] -0.07 | [4] -0.038 | Nexturastat A 0.07 | vemurafenib -0.109 | [5] 0.016 | [6] 0.067 | givinostat 0.002 | barasertib -0.076

ZNF207 isoform 4 (UniProt O43670)
inactive: [1] 0.02 | [2] -0.012 | [3] 0.083 | [4] 0.043 | Nexturastat A -0.03 | vemurafenib 0.051 | [5] 0.041 | [6] -0.007 | givinostat 0.032 | barasertib -0.074

Pulled one by one from the entries so far, 2 records:
XPR1 (UniProt Q9UBH6)
inactive: [1] 0.034 | [2] -0.011 | [3] -0.009 | [4] 0.015 | Nexturastat A -0.048 | vemurafenib -0.03 | [5] -0.006 | [6] -0.013 | givinostat -0.027 | barasertib -0.023

YY1 (UniProt P25490)
inactive: [1] 0.035 | [2] -0.012 | [3] 0.01 | [4] 0.039 | Nexturastat A 0.069 | vemurafenib 0.03 | [5] 0.037 | [6] -0.006 | givinostat 0.02 | barasertib -0.01

The list continues.

ZDHHC17 (UniProt Q8IUH5)
inactive: [1] 0.076 | [2] 0.01 | [3] 0.038 | [4] -0.095 | Nexturastat A -0.086 | vemurafenib 0.016 | [5] -0.016 | [6] -0.061 | givinostat 0.113 | barasertib 0.067
